Measured values reported in PMC9709406 (Frontiers in Pharmacology, 2022).

Assays:
Format in all cases: cell-based, human
KYSE450TR cells = experiment: MTT assay, taxol-resistant KYSE450TR
Description: (§1) The human cancer cells (H1650, H1975, KYSE70, KYSE410 and KYSE450) were purchased from the Type Culture Collection of the Chinese Academy of Sciences (Shanghai, China). The human immortalized normal esophageal epithelial cell line SHEE was donated by Dr. Enmin Li from the Laboratory of Tumor Pathology (Shantou University Medical College, Shantou, Guangdong, China). Drug-resistant cells (H1650TR, H1975OR, KYSE70TR, KYSE410TR and KYSE450TR) were induced by China-US (Henan) Hormel Cancer Institute. The cellswere cultured in RPMI-1640 complete growth medium containing 100 U/mL penicillin-streptomycin and 10% FBS. Based on the above medium formula, 100 nm/L paclitaxel was added in taxol-resistant cells, 100 nm/L gefitinib was added in gefitinib-resistant cells. The cells were incubated at 37 °C in an atmosphere containing 5% of CO2. The compounds were dissolved in DMSO to make a 50 mM stock solution and were diluted to the concentration of working solutions with complete growth medium before administration.
(§2) Cells were seeded in 96-well plates with 2,200–2,500 cells/well in100 μL. One day after seeding, test compounds with the concentration between 0 and 50 μM were added with 0.1% DMSO as control. Five multiple wells for each concentration. […] The absorbance at 490 nm was measured using a microplate reader (Thermo).

KYSE410TR cells = experiment: MTT assay, taxol-resistant KYSE410TR
Description: as §1, §2

KYSE70TR cells = experiment: MTT assay, taxol-resistant KYSE70TR
Description: as §1, §2

H1650TR cells = experiment: MTT assay, taxol-resistant H1650TR
Description: as §1
Cells were seeded in 96-well plates with 2,200–2,500 cells/well in100 μL. One day after seeding, test compounds with the concentration between 0 and 50 μM were added with 0.1% DMSO as control. Five multiple wells for each concentration. After 48 h, MTT was added and incubated in the plate for 1–4 h in the incubator. The absorbance at 490 nm was measured using a microplate reader (Thermo).

H1975OR cells = experiment: MTT assay, osimertinib-resistant H1975OR
Description: as §1, §2

SMILES: CC(=O)O[C@H]1C(=O)[C@@]2(C)[C@H]([C@H](OC(=O)c3ccccc3)[C@]3(O)C[C@H](OC(=O)[C@H](O)[C@@H](NC(=O)c4ccccc4)c4ccccc4)C(C)=C1C3(C)C)[C@]1(OC(C)=O)CO[C@@H]1C[C@@H]2O [taxol, reference compound]
- Resistance index (24 h) (KYSE450TR cells; KYSE 450 TR vs KYSE 450, 24 h IC50): 4.84
- Resistance index (48 h) (KYSE450TR cells; KYSE 450 TR vs KYSE 450, 48 h IC50): 15.38
- Resistance index (24 h) (KYSE410TR cells; KYSE 410 TR vs KYSE 410, 24 h IC50): 5.00
- Resistance index (48 h) (KYSE410TR cells; KYSE 410 TR vs KYSE 410, 48 h IC50): 32.88
- Resistance index (24 h) (KYSE70TR cells; KYSE 70 TR vs KYSE 70, 24 h IC50): 7.69
- Resistance index (48 h) (KYSE70TR cells; KYSE 70 TR vs KYSE 70, 48 h IC50): 56.00
- Resistance index (24 h) (H1650TR cells; H1650TR vs H1650, 24 h IC50): 4.74
- Resistance index (48 h) (H1650TR cells; H1650TR vs H1650, 48 h IC50): 7.74

SMILES: C=CC(=O)Nc1cc(Nc2nccc(-c3cn(C)c4ccccc34)n2)c(OC)cc1N(C)CCN(C)C [osimertinib]
- Resistance index (24 h) (H1975OR cells; H1975OR vs H1975, 24 h IC50): 23.57
- Resistance index (48 h) (H1975OR cells; H1975OR vs H1975, 48 h IC50): 58.48
